Assay results reported in article PMC10688018.
No constants are given. Whether binding was seen depends on the method and setting. Binding seen in cells or lysates may run through a third protein. Some results given as binding are weak or reduced against the parent protein; the word gives no strength. Each block holds one molecule with its values, some of them ahead of it.

By UniProt entry, the sequences of proteins in these tests, tags left out.
UniProt Q99J83: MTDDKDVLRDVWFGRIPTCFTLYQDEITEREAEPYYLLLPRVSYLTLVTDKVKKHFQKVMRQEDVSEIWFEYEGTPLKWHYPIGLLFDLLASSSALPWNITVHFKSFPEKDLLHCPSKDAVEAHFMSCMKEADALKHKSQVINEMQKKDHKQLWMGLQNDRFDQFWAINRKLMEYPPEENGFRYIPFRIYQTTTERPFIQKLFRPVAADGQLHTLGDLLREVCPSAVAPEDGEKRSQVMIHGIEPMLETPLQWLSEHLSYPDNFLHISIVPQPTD
UniProt Q8R4B8: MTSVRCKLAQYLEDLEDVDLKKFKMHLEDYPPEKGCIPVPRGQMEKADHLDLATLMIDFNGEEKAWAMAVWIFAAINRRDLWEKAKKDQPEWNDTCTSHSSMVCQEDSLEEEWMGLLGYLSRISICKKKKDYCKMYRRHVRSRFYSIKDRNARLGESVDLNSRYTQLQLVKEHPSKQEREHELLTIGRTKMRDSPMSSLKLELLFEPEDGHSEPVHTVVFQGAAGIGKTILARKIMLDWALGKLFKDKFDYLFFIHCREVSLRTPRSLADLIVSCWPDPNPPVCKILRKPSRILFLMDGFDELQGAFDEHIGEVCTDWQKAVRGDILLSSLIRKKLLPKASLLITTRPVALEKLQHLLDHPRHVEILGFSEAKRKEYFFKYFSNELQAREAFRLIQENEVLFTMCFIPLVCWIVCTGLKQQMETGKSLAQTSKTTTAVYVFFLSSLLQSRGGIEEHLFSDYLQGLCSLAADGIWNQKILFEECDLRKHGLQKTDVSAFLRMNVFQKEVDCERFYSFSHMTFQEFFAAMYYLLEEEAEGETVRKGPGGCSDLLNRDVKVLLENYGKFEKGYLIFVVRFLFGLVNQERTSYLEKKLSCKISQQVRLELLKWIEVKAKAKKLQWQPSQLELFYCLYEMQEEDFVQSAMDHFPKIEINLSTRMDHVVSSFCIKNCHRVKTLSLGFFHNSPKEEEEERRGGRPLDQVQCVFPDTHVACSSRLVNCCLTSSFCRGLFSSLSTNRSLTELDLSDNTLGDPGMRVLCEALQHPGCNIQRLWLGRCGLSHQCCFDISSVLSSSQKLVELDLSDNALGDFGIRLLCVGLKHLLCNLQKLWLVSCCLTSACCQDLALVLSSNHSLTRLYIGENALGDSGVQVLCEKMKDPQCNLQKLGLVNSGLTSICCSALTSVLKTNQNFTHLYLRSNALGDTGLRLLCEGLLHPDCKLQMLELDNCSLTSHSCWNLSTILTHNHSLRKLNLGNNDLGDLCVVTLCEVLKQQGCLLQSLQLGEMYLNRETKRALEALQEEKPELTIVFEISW

Target: Atg5 (mouse (endogenous in BV2)) (UniProt Q99J83)
Test: co-IP; BV2 cell supernatants incubated with Atg5 primary antibody overnight at 4 °C, then protein A/G PLUS-agarose 6-8 h at 4 °C, three washes; IgG as control; western blot of TRIM45 or NLRP3; for NLRP3: control, LPS + ATP and LPS + ATP + HA-TRIM45 (48 h transfection) groups

binding: binds
Molecule: NLRP3 (from UniProt Q8R4B8 1-1033)

binding: binds
B1: TRIM45 (protein, UniProt Q6PFY8 1-580)
chain: MSEIRKPLLGFVHKLQDANASGSSGKTHCPTCLRLFKVPRLLPCLHTVCTTCLEKLDPFSVVDIRGGDSDTSSEGSVFQDPELCSLQPQIGILCPVCDAQVDLPLGGVKALTVDHLAMNDVLLENLRGEGQGLVCDLCSDREVEKRCQTCKANLCHFCCQAHRRQKKTTYHTMVDLKDLKGYSQVGKPILCPSHPAEELRLFCELCDRPVCRDCVVGEHREHPYDFTSNVIHKHGDSVRELLRDTQPHVEALEDALAQIKSVNNALQERVEAVAADVRTFSEGYIKAIEEHRDKLLQQLDDIRIQRETALQLQKAQLEQLLADMRTGVEFTEHLLTSGSDLEILITKGVVVERLRKLNKVEYSARPGVNHKICFSPQEKAGQCQGYEVYGAINTQEVDPAQCVLQGEDLHRAREKQTASFTLFCKDASGQSMGRGGDNVHVEVVPKDKKDSPIRTVVQDNKDGSYRVSYTPKEPGIYTVWVCIREQHVQGSPFNVTVRRKHRPHPGVFHCCTFCSSGGQKAARCACGGTMPGGYLGCGHGHKGHPGRPHWSCCGKFIEKSECSFTSGQGAPRSLLRTVAL
